From patent US20100022520A1, “MALONYL-COA ACETYLTRANSFERASE INHIBITORS AGAINST ANTIBIOTIC RESISTANT BACTERTIA” (University of Pittsburgh -- Of the Commonwealth System of …, priority 2008, published 2010)
Some results were stated once for a whole list of compounds, not compound by compound.

Test system: 32D cl 3 mouse hematopoietic progenitor cells
Experiment: radioprotection, survival curves of irradiated 32D cl 3 cells
Assay type: cell-based
Conditions: versus control
Protocol: To measure the level of radioprotection for compounds in Table 3, a DMSO solution is made for each compound and added to 32D cl 3 cells, a mouse hematopoietic progenitor cell line at a final concentration of 10 μM. The terms “radioprotection” and “radioprotective” refer to the protective effect on normal cells exerted by the captioned compounds when such cells are exposed to ionizing radiation.
FIGS. 2-4 show the survival curves for 32D cl 3 cells in the presence of different compounds of the invention. A strong radioprotective effect is seen in cultures that include the captioned compounds. FIGS. 2 and 3 show cell survival curves when the captioned compounds were added to cell cultures before exposure to radiation. The survival curves in FIG. 4, however, show the radioprotective effect of the inventive compounds when delivered to cell cultures after exposure to ionizing radiation. […]
The extent of radioprotection afforded by the captioned compounds is determined by measuring the fraction of viable cells in a culture containing the captioned radioprotective agent. The fraction of viable cells is determined by back-extrapolating the linear portion of the shoulder width in a survival curve to the Y-axis.

Cc1cn(CC(NC2CCSC2=O)C(=O)NC(C)(C)C)c(=O)[nH]c1=O (racemic) [SK7]
N-value relative to control: at least 4 fold

O=C(NCc1ccccc1)[C@@H]1CSC(=O)[C@H](Cc2ccccc2)N1 (single isomer, unassigned) [BEB 75-1]
N-value relative to control: at least 4 fold
